Data taken from US20180201937A1.
No constants are given. Whether binding was seen depends on the method and setting. For some assays here: In cells and extracts the contact can be indirect. Some binding calls cover weakened binding; strength is not graded here.

Amino acid sequences for entries named in this document (tags omitted).
UniProt O43432: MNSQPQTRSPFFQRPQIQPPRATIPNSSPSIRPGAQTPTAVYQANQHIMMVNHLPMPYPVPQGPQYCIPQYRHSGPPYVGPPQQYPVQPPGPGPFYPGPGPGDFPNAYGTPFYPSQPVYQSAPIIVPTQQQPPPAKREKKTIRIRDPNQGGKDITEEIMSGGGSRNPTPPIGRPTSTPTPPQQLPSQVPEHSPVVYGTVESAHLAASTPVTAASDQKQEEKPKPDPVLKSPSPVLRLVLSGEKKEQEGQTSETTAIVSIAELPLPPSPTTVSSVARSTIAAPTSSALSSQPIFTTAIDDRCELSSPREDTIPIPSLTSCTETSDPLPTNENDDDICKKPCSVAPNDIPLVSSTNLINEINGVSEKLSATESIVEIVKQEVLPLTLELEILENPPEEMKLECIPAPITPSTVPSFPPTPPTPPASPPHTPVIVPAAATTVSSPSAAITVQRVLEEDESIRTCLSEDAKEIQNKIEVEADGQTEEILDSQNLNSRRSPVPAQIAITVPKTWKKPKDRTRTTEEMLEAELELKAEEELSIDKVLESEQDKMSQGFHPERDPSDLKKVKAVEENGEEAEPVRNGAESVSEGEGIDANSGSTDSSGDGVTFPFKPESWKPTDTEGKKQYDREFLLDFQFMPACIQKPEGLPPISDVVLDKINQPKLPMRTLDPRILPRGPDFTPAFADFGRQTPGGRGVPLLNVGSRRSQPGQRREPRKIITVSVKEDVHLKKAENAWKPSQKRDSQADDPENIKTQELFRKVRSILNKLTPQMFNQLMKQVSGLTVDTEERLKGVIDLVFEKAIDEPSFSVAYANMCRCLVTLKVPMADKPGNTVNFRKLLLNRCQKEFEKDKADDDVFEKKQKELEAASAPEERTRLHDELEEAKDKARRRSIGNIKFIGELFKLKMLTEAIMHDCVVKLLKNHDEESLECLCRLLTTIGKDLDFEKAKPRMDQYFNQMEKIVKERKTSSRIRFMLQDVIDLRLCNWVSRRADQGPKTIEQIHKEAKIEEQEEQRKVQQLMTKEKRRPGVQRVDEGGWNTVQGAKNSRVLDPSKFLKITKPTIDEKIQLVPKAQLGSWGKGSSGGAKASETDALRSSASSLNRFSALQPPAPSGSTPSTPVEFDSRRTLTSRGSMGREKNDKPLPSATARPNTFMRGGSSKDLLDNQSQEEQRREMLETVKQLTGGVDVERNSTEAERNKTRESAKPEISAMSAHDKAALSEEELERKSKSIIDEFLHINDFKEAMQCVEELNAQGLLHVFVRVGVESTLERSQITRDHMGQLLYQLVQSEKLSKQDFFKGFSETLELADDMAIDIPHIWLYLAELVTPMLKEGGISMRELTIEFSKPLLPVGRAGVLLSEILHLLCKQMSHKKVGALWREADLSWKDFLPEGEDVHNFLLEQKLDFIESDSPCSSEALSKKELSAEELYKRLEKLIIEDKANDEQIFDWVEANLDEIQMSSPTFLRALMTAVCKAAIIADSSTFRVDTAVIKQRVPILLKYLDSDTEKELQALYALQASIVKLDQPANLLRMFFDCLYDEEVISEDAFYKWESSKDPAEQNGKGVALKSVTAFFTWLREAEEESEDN
UniProt Q14240: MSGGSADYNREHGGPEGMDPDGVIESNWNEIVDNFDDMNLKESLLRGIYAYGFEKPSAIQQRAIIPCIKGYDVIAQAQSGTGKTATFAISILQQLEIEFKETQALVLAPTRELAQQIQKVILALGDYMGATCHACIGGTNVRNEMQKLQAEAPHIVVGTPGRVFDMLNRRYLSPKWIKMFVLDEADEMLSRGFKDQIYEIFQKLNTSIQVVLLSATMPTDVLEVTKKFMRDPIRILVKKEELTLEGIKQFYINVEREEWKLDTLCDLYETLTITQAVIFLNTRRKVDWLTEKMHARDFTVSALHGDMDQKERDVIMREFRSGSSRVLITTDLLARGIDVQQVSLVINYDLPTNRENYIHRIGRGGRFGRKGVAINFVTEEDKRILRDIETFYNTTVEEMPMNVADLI

Tests used:
[1] = target: eukaryotic initiation factor eIF4GII, expressed from pcDNA3-HA-eIF4GII (UniProt O43432); experiment: coimmunoprecipitation from HEK293 cells co-transfected with eIF4AII and eIF4GII vectors, using eIF4AII- or eIF4GII-specific antibody or control IgG; Western blot
[2] = target: eukaryotic initiation factor eIF4GII, expressed from pcDNA3-HA-eIF4GII (UniProt O43432); experiment: immunoprecipitation from HEK293 cells co-transfected with eIF4AII and eIF4GII vectors, using eIF4AII- or eIF4GII-specific antibody; Western blot

**Q.** For “eukaryotic initiation factor eIF4AII (human), expressed from pcDNA3.1-HisXpress-eIF4AII (from UniProt Q14240 1-407)”, which binding [1] is on record?
**A.** binds

**Q.** What about the binding [2] of the same substance?
**A.** binds
